Test results taken from publication PMC5839063.

Molecular target: T1, ArgR (Streptomyces coelicolor M145) (UniProt Q9L1A5)
T1 sequence (looked up, limits assumed): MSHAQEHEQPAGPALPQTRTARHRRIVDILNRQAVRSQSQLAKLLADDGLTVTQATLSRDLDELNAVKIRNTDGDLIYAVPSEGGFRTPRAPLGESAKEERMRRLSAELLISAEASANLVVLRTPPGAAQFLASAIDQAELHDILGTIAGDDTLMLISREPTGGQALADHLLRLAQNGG
Experiment: EMSA
Details: L-arginine (10 mM in binding buffer); 15 uL reaction with 5 uL buffer (10 mM Tris-HCl pH 7.4, 5 mM MgCl2, 2.5 mM CaCl2, 250 mM KCl, 0.5 mM DTT, 10 mM L-arginine), poly(dIdC) 1.3 ug/mL, 10% glycerol; recombinant protein; protein details: Strep-tag; label: 6-FAM; flanks not given

Row | Sequence | binding result
1 | AGGCTGCCGCGCGAGCGAGCAGTAGCGTGCGGTCATGGGCATCAGGGTGCCGTCCGGGCCGGTCCCGGCGCCTGAGTCGGGGGGTACTCAAGTCACCCTGTATCAGGGATGAGTATGCCGACTCATGTTGCCGTGACGACTTCTCTGCGGGACGCGAAGAGGCTGGAGACCCCCTGGCCGTTCACCGGGCGGGCGGACGAACTGGAGCTGGTGCGCGGGTCCGTGG (double strand) [Bidirectional intergenic region SCO6992-3, absR1-2] | no binding
2 | CAGCCCCTGCTCGGTGAACACCTCGTGGGCCGCCTCCAGCAGAAGCTCCCGGTTGCGCCGCGCGTCGCGTCGCTGCCGGGGCGCTCCGTCGCGTGCGCCGACGGTCATCCTCGCCCTCCGGGTCGTACGAACCGGGGAGTGCTCCCCGTGCTCCGAACACCGATGCTATCGTCGGCCGAGGAAATGGGGAGTGCTCCCCGTTTAATTGTCTCTCTCACCGGAGGTCCCATGACCGCGCCCACCTATGAGGAACTGGCCGCCCTGCGGGCCGTGGGCGCCGTGCACCGGGTGTTCGTGCCGGGCAGCGGGGAGAGCCGGCTGGTGGTGACGCGCGACGCGGCACGGGCCGCGCTCACCGACCCGCGGCTGCGCAACGACATCCGGCACTCCGCTTC (double strand) [Bidirectional intergenic region SCO3769-70] | no binding
3 | CCCGGCTGCTACGGAATTGTTCTCACTGGTGACCACGCTCGGCTGCCCTTTCCTGGCTGTGTCGTCCGGACATCTGCCCGCGAAAACGCACGCGGCCGCGACCCGAATCCTCTTCCAGACCTTGCAAGCAATGTGACGAAAGACTAGAAACACCGGGTAGGTGATCAGTCACGGCGTGGTAACTGCCGCCGCTGGAATGCCTGATGACCGGCCCGTTG (double strand) [Promoter region of SCO6275, cpkA] | no binding
4 | CCGGAGCGTTCAGCGTTCGTTTATCTCCCCCTGGCACTGTCATCTCCGTCAGACCGTCGCATCGGGGGGCAGACGGATGACGACCGAGCCCACCAGTTAGTGTGCGGCTCCGCGCGCCCGTCCGGCAGCCTACGGGGGAGCTACCGGACGGGCGTTGCTACCTCGTCACGACCCATGAGGAGCGAAGTCCATGAGCGACAAGATGAAGGACGCGGACGCCACA (double strand) [Promoter region of SCO4425, afsS] | binds
5 | CCTCCCCCGCCTCAACAGCGTGGCGGTGCGGGCGATGGGCGTCGGGACGGGGCTGCTGACGGTACGGGTGGAGTTGGAGGGGCAAAGCCGAAGAAGCTGATGGAGAACCTGTGATCGGCGTCTCCCACGGCTGACGTGGTCGGCATGAACAAGGCAAACTGACGTGGTTGCTCAGGATGTCTAGGGGGACGGCATGGACGGTGGACCGCGGGTTCCGGAGCAGCGGCGTCCCGGATTCCCGGCGGAAGAGGAGGA (double strand) [Promoter region of SCO4426, afsR] | binds
6 | CGAAGCCCAGCCGTCGATAGCCGAGCACCTCCCGGAGCCGCTCCACGTCGTCCGCCGAATAGGCCCGGTACCCGGCAGCGGTGCGCCCCGACGGCCGAACGAGCCCGATCTCGTCATAGTGATGCAGCGTGCGGACGCTCACGTGGGCCAGCTCGGCCACGCGCCCCACGGTCCAGTGATCCTCCACGGCCCCGACTA (double strand) [Coding region of SCO7698] | no binding
7 | CGAGGACGTCGAGGTCTCCGGCCCCGGCTTCCTCAACATCACCGTCGCCGACCGGGCGATCACCGCGAACCTGGCCGCGCGGCTCGCGGACGGCGAGCGCCTCGGCGTGCCGTTGAAGCAGGACGCGGGCACCACGGTCGTCGACTACGCCCAGCCGAACGTGGCGAAGGAGATGCACGTCGGCCACCTGCGTTCCGCGGTCATCGGCGACGCCCTGCGCTCCATGCTCGACTTCACCGGCGAGAAGACGATCGGCCGGCACCACATCGGCGACTGGGGCACCCAGTTCGGCATGCTCATCCAGTACCTGTTCGAGCACCCCGGCGAGCTGGCCCCGGCCGGGGACATCGACGGCGAGCAGGCCATGTCGAACCTGAACCGGGTGTACAAGGCGTCGCGCGCGGTCTTCGACACGGACGAGGAGTTCAAGGAGCGGGCCCGGCGGCGGGTCGTCGCCCTGCAGTCCGGCGACAAGGAGACCCTCGATCTGTGGCAGC (double strand) [Coding region of SCO3304, argS] | no binding
8 | CGCGTGGGGACGAGGACGGGTCGAGGTCTTTCGGTCCTGGCATGGTGACGGAACTCCCGGTCGCACAGCAGGGGTTGTTGGAGCGCCCTGTATGGCCAGGTTAGGGGCGGGGTGGACACGCTGTGTCGTGAATCACGAACTCAGCGTGGAGGTGAGGAAGGGTGCGGTCGACCGAAGAAGTCGTCGAGTCCCTGCGGCAGGCCCTC (double strand) [Bidirectional intergenic region SCO4301-2] | no binding
9 | CGCTGCCAGGAGTTGAGGATGCCCTCGGGCACGACCGCCGCAGGCAGTTCCGCGTTCTGAAGGAACTTCAGGCGTGCTCGCGCGATGGTTCGGTCGCGCGCTGTGCTGTCACTGAGCATGGCGCCCCTCCGATGAGCGTGTTTCCGCCATATTACGAACGCGTTTGCACCTGTCAACGGGGGGTTGGGTACGGCTTTTCCCCGCGTTCGCCGTGCCCTGATCAGGGGCGGGCCGGGTGTGTTCCACATTGAAAAAGTCGACGGCGCTCCCCGCCCGCACGCTGTTGGGCAGCACCGCACGAGAGCGCGGAGGCTCCCCGCCGAGCAGTCGAACCCTGGAGGACCCAT (double strand) [Bidirectional intergenic region SCO0255-6] | binds
10 | CGGATACTCGCACAAGCAGAATTTAAGAATTCTACTCAGCGCAGCTTCCCGTATTCTTCTGCCCGCTTTCTTCGGACCTAAACACAAAGATTTCACGACTAACGATCTTCACATTTCGGACACGTCTCGCACGGGTTACGCGATTGTGACCCGATCCACATGCTGCCCGATTTGCGGCTTACGCACCCGTCAAATCGCCCCATAACGCCGTCGTCTCGCGCGGAAGCACGCGCCCGCGTGATAACACAAGCGGCACTCATTCGTAACCCCATCCGGCGATGCAATTTCGAATTTCGCTGGGTAAATTCAATTTGCATGACTGCCGCGCAAGCAGACCTGCAAATCGATCGTCC (double strand) [Bidirectional intergenic region SCO1863-4, ectA] | binds
11 | CGGCCGAGGTCCACTGCGCCATGGAAATCAGTCCACCTTCCCCAAATTGGCCATGGTTGACTCTTCTTCTGAAGCCACAGGGTGTCATGTGGCAGTCCACTACCACCACCCCAGGGGGCACTTCTTGTCCAGGCAGTCCAGACAGTCGAGGCAATCCGGGCAGTCCGGATGGTCCGGGCGACTCGCGCGGCGGCTGACGCAGCTCTACGGCGGTCTCGTCCTGTACGGAGCGAGTTCGGCGCTGCTGG (double strand) [Bidirectional intergenic region SCO1417-8] | no binding
12 | CGGTACGGCCTCAACACATTGACGGTGGTGTCGGGAATCACCCGTCCTGTGTTGAGGCCCGAATCCGATCGTTCGGTGGATGACGGGTGGGGGAGTGCTTGCCACGATGGACCCGGTTCGAAAACTGGTCCGGAGCCAGCCAAAGATCGGGCGGCACCCCGTCGCGGCCGGTCAGGACGGCCGCGACCGGCACCCCATCCGCTCATGGGAGTGCGGAGAACG (double strand) [Promoter region of SCO5877, redD] | no binding
13 | CGTATGACCCGCCCGGACACCGACGGCTCCGCCGCCCGGCTCTCCCTCGTCCCCCTCACCCTCCCTCTCCCCCTCCCCCGTTCCACCCGTTCCCCGGGAGTCACCGCATGACGACGCTCACGACGACGCCGGACGGGAGCGCGGCCCGCAGGTCCGTTCCGCCGCCCTCCCCCGCCCCGGCCGCGGGCCGGCGCCGGCAGGGCGGCACCGTCCTCGCGGTGCCCGCGCTGGTCT (double strand) [Promoter region of SCO0454] | no binding
14 | GACGCACATCATGGAGACCGTCGACATCGGCGTCCCCCTGCGCACCGTCTACGACCAGTGGACGCAGCTCCAGGACTTCAGCGACTTCACCAAGGGCGTGCAGAGCGTCAGCCCCCACGACGAGACGACCTCGGACTGGACCGCCAAGATCGCTTTCTCGACCCGCAGCTGGAAG (double strand) [Coding region of SCO0654] | no binding
15 | GAGGTGGTGCGTGGTCATGGGGCCAGCGTACTCCTCATTCGAAAGTCTGTTCTATCCATGGCGTCGCCGTTGTTCGTCGTCGTTCGTCGTCGGTCCGTGACTGCCTGCTCTTTCGATACGCCGGTGTATCCGATACATTCCCGTATCGAACCGAGCGAAGGGTCCGGACATGACGGCGAAGGCGACCACCGGGCGGGTGACCAGGAGGCGCGTGCACACCCGTGCGAACCTCCTGGACGCCGCGTTCGCGGTGTTCGCCGCCAAGGGCTTCGGACGGGTGTCGATCGAGGAGGTCTGCGA (double strand) [Bidirectional intergenic region SCO7302-3] | no binding
16 | GCAGGGCGCGAGCTTCTCGGTGATCGACATCACGACCACCGAGGGGGAGATGCCCGAGGTCACGGACGTCTCCTGAGCCCTGTCCGGACACCCCGCCGGGCCATGGCATGATCGAGCGCATGCGTGAACGTGCAGTGGCCGCGTGCGACGGGGCTTCGAAGGGAAACCCGGGTCCGGCCGGCTGGGCCTGGGTGGTCGCCGACGCG (double strand) [Promoter region of SCO7284] | no binding
17 | GCGACCTCGCCTGGTTCCACGACATGCACATCGGCTACATGCCGTACTACATCAACGCGTTCGCCTTCTACGGCCTGCTCACCGAGCTGTGCGCCCGCTGGCTCGGCAGCGACGGCGTGGGCCTGCAGAACCGCGTCAAGACCGACATGTCCAGCCTGCGCACCGTCGAGTCGGCCAAGGAGGTCTGGTCGGTCGCCCAGGCCGCCAAGAACGA (double strand) [Coding region of SCO5896, redH] | binds
18 | GCGTAGGTGACGCTCCATCAGTGAGCTTCTTCGATGTGGCCACCGATCGGGTGACGGGCCGTGAAGCGCAACGAGCGAGGCCCCCGGGCTGTTGATCGAGATGTCTGACGTCTCAATCACGTTGCTCGGGGGCCTCGTTGGTCATGCATCCTGCCGCACTTGACCTGCCGCATGCACTCGTGGAGTGGGCCACCATGCT (double strand) [Bidirectional intergenic region SCO5326-7] | binds
19 | GGGGTCACCGGGTGGCTGCACGCCGTGGACATCGACTCGGGGGCGCAAGTCGGGGCCGGGGCGGACCAGCCGGTCTGCACGGCCAGTGTCCACAAGCTGTGCGTGCTGGTGACGCTGCACGAGCTGGCGGCGGCCGGGGAACTGGACCTCACCGAGCGGATCGAGTGCCCGCCGACCGGCCGCACGCCCGGGCCCACCGGGCTCGCGGCCATGCTCGA (double strand) [Coding region of SCO3774] | no binding

Construct, isoform or probe ends are uncertain for at least one entry. No signal at the amounts used counts as a negative. Where a protein sequence is shown, tags need not be part of it.
